Reference: article doi:10.1101/2021.07.06.451253
No constants are given. Whether binding was seen depends on the method and setting. Binding seen in cells or lysates may run through a third protein. Binding calls can cover weak binding; strength is not graded here. Sequences can lack the tags named with a protein.

Target: T1, N’-FLAG-tagged Tanmp (tanycyte-associated ER membrane protein) (mouse) (UniProt Q6NSQ3)
T1 sequence: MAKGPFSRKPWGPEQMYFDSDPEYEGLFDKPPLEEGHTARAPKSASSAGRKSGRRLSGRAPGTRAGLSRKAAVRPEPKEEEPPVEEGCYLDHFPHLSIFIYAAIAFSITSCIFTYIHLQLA
Assay: co-IP

binding | Substance
binds | α-subunit of mitochondrial ATPase (ATPA)
binds | β-subunit of mitochondrial ATPase (ATPB)
